# From PubChem BioAssay AID1347076 (National Center for Advancing Translational Sciences (NCATS), 2019)
# In all, about 400,000 compounds went through this assay and about 13,000 (3.2%) were called active. Inconclusive means that the source gave no clear call. Such entries were picked first, then a sample of the others. Calls come from the whole dose curve; as a rule, active = well fitted cell-killing curve with a large enough effect; inconclusive = small, poorly fitted or top-dose-only effect, or effect the other way; inactive = flat fitted curve, though single readings scatter. A potency beside an inconclusive call is a rough fit, not a confirmed value.
# Assay: qHTS assay for MDR1-selective chemotherapeutics: Primary screen using the drug-selected MDR subline cells KB-V1; note: nearly all actives have a fitted effect of over 60% in size
# Settings: KB-V1 MDR cells viability, CellTiter-Glo, 72 h; activity change, negative = cytotoxicity: at 46.1 µM (top of the series)
# Method in brief: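 Readout: CellTiter-Glo luminescence, 10 min after addition. Cells: KB-V1 MDR subline, 72 h at 37 degrees C with compound. Analysis: corrected, normalized data fitted to concentration-effect curves.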
# % is set by controls: 0 for no effect and ±100 for the full control effect; potency is the fitted concentration of half-maximal effect.
Compound,Potency,"activity change, negative = cytotoxicity"
O=C(NCc1ccc2c(c1)OCO2)C(=O)Nc1cc2c3c(c1)CC(=O)N3CCC2,"inconclusive: 6.51 µM [cytotoxic, partial curve]",
Cc1nn(C)cc1/C=N/NC(=O)Cn1cncn1,inactive,
NC(=O)C(=O)N/N=C/c1cccc(C(F)(F)F)c1,inactive,
CCCOc1ccc(OCCOCCNCc2ccccc2)cc1,active: 8.2 µM,
COC(=O)/C=C1\OCc2cc(OC)c(OCc3ccccc3)cc21,inactive,
COc1cccc(-c2ncc3ccccc3c2CO)c1,"inconclusive: 0.0291 µM [rising, full curve]",
CCC(=O)N(Cc1ccco1)c1nc(-c2ccc(OC)cc2)cs1,inactive,
O=C1CC(c2cccc(Cl)c2)CC(O)=C1C=NC1CCCC1 (configuration not stated),active: 20.6 µM,
Cc1ccc2nc(-c3cccnc3)c(Nc3ccccc3C)n2c1,"inconclusive: 4.11 µM [cytotoxic, full curve, poor fit]",
Cc1ccccc1OCC(=O)Nc1nnc(-c2ccncc2)s1,inactive,
O=C(NCCN1CCC(n2c(=O)[nH]c3ccccc32)CC1)c1cccnc1Cl,"inconclusive: 0.184 µM [rising, full curve]",
Cc1nc(-c2ccccn2)sc1C(=O)Nc1ccc(F)cc1F,active: 10.3 µM,
Cc1cccc(N2CCN(Cc3c(C)n(C)n(-c4ccccc4)c3=O)CC2)c1C,active: 18.4 µM,
Cc1nc2ccccc2c(=O)n1/N=C/c1c(O)ccc2oc3c(c12)CCCC3,active: 18.4 µM,
COc1ccccc1C1CCCN1Cc1nc(-c2ccc(C)s2)oc1C (configuration not stated),"inconclusive: 9.2 µM [cytotoxic, partial curve]",
O=C(c1nc2ccccc2s1)N1CCN(c2ccccn2)CC1,"inconclusive: 29.1 µM [cytotoxic, single point]",
CCCNC(=O)CCSc1nc(-c2ccc3c(c2)OCO3)cc(C(F)(F)F)n1,"inconclusive: 5.8 µM [cytotoxic, full curve]",
Clc1ccc(C2=Nn3c(nnc3-c3cc(-c4ccccc4)n[nH]3)SC2)cc1,"inconclusive: 18.4 µM [cytotoxic, single point]",
CC1Sc2ccc(S(=O)(=O)N3CCC(C(=O)Nc4ccc(Cl)cc4)CC3)cc2NC1=O (configuration not stated),"inconclusive: 29.1 µM [cytotoxic, single point]",
COc1ccc(NC(=O)c2ccc3c(c2)OCCO3)cc1OC,"inconclusive: 16.4 µM [cytotoxic, single point]",
O=C(CCc1ccccc1)N/N=C/c1cc(Br)ccc1O,"inconclusive: 20.6 µM [cytotoxic, partial curve]",
CCC/C(=C1/c2ccccc2C(=O)N1c1ccccc1)c1ccc2c(c1)OCCO2,"inconclusive: 9.2 µM [cytotoxic, partial curve]",
COCC(C)NC(=O)c1cc(-c2cccc(OC)c2)on1 (configuration not stated),"inconclusive: 29.1 µM [cytotoxic, single point]",
Cc1noc(C)c1COc1ccc(C(=O)N2CCN(S(=O)(=O)c3ccc(F)cc3)CC2)cc1,active: 8.2 µM,

# Part of the list above, bar-delimited.
Compound | Potency | activity change, negative = cytotoxicity
O=C(NCc1ccc2c(c1)OCO2)C(=O)Nc1cc2c3c(c1)CC(=O)N3CCC2 | inconclusive: 6.51 µM [cytotoxic, partial curve] | 
Cc1nn(C)cc1/C=N/NC(=O)Cn1cncn1 | inactive | 
NC(=O)C(=O)N/N=C/c1cccc(C(F)(F)F)c1 | inactive | 
CCCOc1ccc(OCCOCCNCc2ccccc2)cc1 | active: 8.2 µM | 
COC(=O)/C=C1\OCc2cc(OC)c(OCc3ccccc3)cc21 | inactive | 
COc1cccc(-c2ncc3ccccc3c2CO)c1 | inconclusive: 0.0291 µM [rising, full curve] | 
CCC(=O)N(Cc1ccco1)c1nc(-c2ccc(OC)cc2)cs1 | inactive | 
O=C1CC(c2cccc(Cl)c2)CC(O)=C1C=NC1CCCC1 (configuration not stated) | active: 20.6 µM | 
Cc1ccc2nc(-c3cccnc3)c(Nc3ccccc3C)n2c1 | inconclusive: 4.11 µM [cytotoxic, full curve, poor fit] | 
Cc1ccccc1OCC(=O)Nc1nnc(-c2ccncc2)s1 | inactive | 

# Continuation:

Compound,Potency,"activity change, negative = cytotoxicity"
CCOC(=O)c1cn(CC)c2ccc(S(=O)(=O)N3CC(C)CC(C)C3)cc2c1=O (configuration not stated),"inconclusive: 14.6 µM [cytotoxic, partial curve]",
COc1ccc(N(C(=O)c2cccnc2)S(=O)(=O)c2ccc(Cl)cc2)cc1,inactive,
Cc1ccc(Nc2cc(C)nc3c(C)ccc([N+](=O)[O-])c23)cc1,,inconclusive: -25.3%
NNC(=O)Cc1cccc2ccc(Cl)cc12,inactive,
Cc1c(Cl)cccc1NC(=O)NNC(=O)CCc1ccccc1,"inconclusive: 8.2 µM [rising, partial curve, poor fit]",
O=S(=O)(c1ccccc1)c1nc(NCc2cccnc2)sc1Cl,"inconclusive: 25.9 µM [cytotoxic, single point]",
Cc1cc(C(F)(F)F)n2nc(-c3sccc3-n3cccc3)cc2n1,inactive,
C#CCOCCOCCOCCNc1nc(N2CCN(C(=O)CCCCCCCCCCNC(=O)[C@H](CCCCN)n3cc(CCO)nn3)CC2)nc(N2CCN(C(=O)CCCCCCCCCCNC(=O)[C@@H]([C@H](C)O)n3cc(C)nn3)CC2)n1,,inconclusive: 6.41%
CC[N+](CC)(CC=C(C)C)CC(=O)OC,"inconclusive: 29.1 µM [rising, single point]",
COCc1ccc(C(=O)Nc2ccccc2C(=O)NCc2cccnc2)cc1,"inconclusive: 9.2 µM [cytotoxic, partial curve]",
O=C(NCc1ccco1)c1ccc2c(c1)N(Cc1ccccc1)C(=O)CS2,active: 5.8 µM,
CN1CCN(NC(=O)c2cc(-c3ccc(Br)s3)nc3ccccc23)CC1,inactive,
CCOC(=O)C1=C(C)Nc2nc(SCC(=O)OC)nn2C1c1cc(F)cc(F)c1 (configuration not stated),"inconclusive: 20.6 µM [cytotoxic, single point]",
Cc1ccc(Nc2c(-c3ccccn3)nc3cccc(C)n23)cc1,active: 6.51 µM,
Cc1nc(-c2ccccn2)sc1C(=O)Nc1ccc(Cl)c(Cl)c1,active: 18.4 µM,
O=C(Nc1nnc(C2CC2)o1)c1ccc(S(=O)(=O)N2CCc3ccccc3C2)cc1,"inconclusive: 16.4 µM [cytotoxic, single point]",
O=C(c1ccc(CSc2nc3ccncc3n2Cc2ccccc2)cc1)N1CCCCCC1,inactive,
Cc1ccc(S(=O)(=O)Nc2cccc(C(=O)NCCN3CCOCC3)c2)cc1F,"inconclusive: 0.82 µM [rising, full curve]",
Cc1nc(N/N=C/c2cccc(F)c2)cc(N2CCOCC2)n1,"inconclusive: 29.1 µM [cytotoxic, single point]",
Cc1cccc2cc(CNCC3CCCO3)c(Cl)nc12 (configuration not stated),"inconclusive: 14.6 µM [cytotoxic, partial curve]",
Cc1ccc(Cl)cc1-n1ncc2c(Nc3cccc(C)c3C)ncnc21,"inconclusive: 16.4 µM [cytotoxic, single point]",
Cc1cnn(C(=S)NCc2ccc(Cl)cc2)c1,"inconclusive: 32.6 µM [cytotoxic, partial curve, poor fit]",
CN(CCc1ccccn1)S(=O)(=O)c1ccccc1F,"inconclusive: 8.2 µM [cytotoxic, partial curve]",
